Data source: PubChem BioAssay AID652243 (Drosophila RNAi Screening Center, 2013)
Screen: 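Fly regulators of androgen-dependent reporter output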 (primary screen). Cell system: Drosophila S2R+ cells. Reagents: long dsRNA against Drosophila genes. Time to read-out: 72 h (48 h, then 24 h hormone). Conditions: synthetic androgen R1881 at 10 nM for 24 h. Read-out: 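Per-well raw luminescence of the androgen-driven firefly reporter and of the Renilla control, two replicates each, without normalisation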. Reading the numbers: firefly reporter light: higher = more light from androgen-responsive reporter; Renilla control light: higher = more constitutive control signal (cell number, transfection). Call rule: 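Across duplicate plates, a knock-down whose log firefly/Renilla ratio shifted a set fold down or up from the GFP/LacZ control mean was a hit; the downward cut appears as both 1.5 and 3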. Calls: active = hit: reporter lowered or raised; inactive = no hit.
The deposit covers about 24,000 reagents; below is an unselected part of those with a known target gene and a result. In the full data, 246 (1%) are marked active. 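Plates not normalised; calls are printed but the firefly/Renilla ratio behind them is not deposited; fold cut for lowering reported inconsistently.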 Raw values vary from plate to plate and are shown uncorrected. A plus sign joins genes that one reagent is predicted to hit. Reagent sequences are not shown. Not given: the amount of reagent.

| gene knocked down | DRSC id | firefly reporter light, replicate 1 | firefly reporter light, replicate 2 | Renilla control light, replicate 1 | Renilla control light, replicate 2 | Outcome |
| --- | --- | --- | --- | --- | --- | --- |
| mRpL35 (mitochondrial ribosomal protein L35) | DRSC14586 | 2.76e5 | 2.37e5 | 3.35e6 | 3.03e6 | inactive |
| oc (ocelliless) | DRSC25006 | 3.27e5 | 3.31e5 | 3.79e5 | 4.73e5 | inactive |
| Gr2a (Gustatory receptor 2a) | DRSC18603 | 2.65e5 | 4.07e5 | 4.58e6 | 3.46e6 | inactive |
| Rim2 (Replication in mitochondria 2) | DRSC00520 | 6.62e5 | 9.25e5 | 2.02e6 | 2.38e6 | inactive |
| Rim2 (Replication in mitochondria 2) | DRSC22699 | 8.29e5 | 7.38e5 | 2.81e5 | 1.67e5 | inactive |
| CG4984 + CG4975 | DRSC06907 | 54674 | 79383 | 8.24e5 | 8.24e5 | inactive |
| CG4984 + CG4975 | DRSC06908 | 1.28e6 | 2.82e5 | 1.32e6 | 4.48e5 | inactive |
| CG32036 | DRSC10362 | 8.07e5 | 3.95e5 | 6.63e5 | 5.56e5 | inactive |
| CG32036 | DRSC28171 | 6.21e5 | 4.52e5 | 2.16e6 | 1.63e6 | inactive |
| CG14230 | DRSC19586 | 93940 | 1.10e5 | 7.30e5 | 8.76e5 | inactive |
| Capr (Caprin) | DRSC10346 | 1.56e5 | 1.80e5 | 2.16e6 | 2.75e6 | inactive |
| Capr (Caprin) | DRSC26777 | 4.52e5 | 4.37e5 | 4.19e5 | 5.25e5 | inactive |

No new results follow: 4 of the entries above.
| gene knocked down | DRSC id | firefly reporter light, replicate 1 | firefly reporter light, replicate 2 | Renilla control light, replicate 1 | Renilla control light, replicate 2 | Outcome |
| --- | --- | --- | --- | --- | --- | --- |
| Rim2 (Replication in mitochondria 2) | DRSC22699 | 8.29e5 | 7.38e5 | 2.81e5 | 1.67e5 | inactive |
| CG4984 + CG4975 | DRSC06907 | 54674 | 79383 | 8.24e5 | 8.24e5 | inactive |
| CG4984 + CG4975 | DRSC06908 | 1.28e6 | 2.82e5 | 1.32e6 | 4.48e5 | inactive |
| CG32036 | DRSC10362 | 8.07e5 | 3.95e5 | 6.63e5 | 5.56e5 | inactive |

Additional results:
| gene knocked down | DRSC id | firefly reporter light, replicate 1 | firefly reporter light, replicate 2 | Renilla control light, replicate 1 | Renilla control light, replicate 2 | Outcome |
| --- | --- | --- | --- | --- | --- | --- |
| Ate1 (Arginyltransferase 1) | DRSC05925 | 9.12e5 | 6.56e5 | 1.41e6 | 6.85e5 | inactive |
| Ate1 (Arginyltransferase 1) | DRSC24725 | 7.81e5 | 6.80e5 | 9.61e5 | 7.12e5 | inactive |
| eIF3f2 (eukaryotic translation initiation factor 3 subunit f2) | DRSC04903 | 4.32e5 | 3.27e5 | 2.65e6 | 1.91e6 | inactive |
| Asciz (ASCIZ zinc finger protein) | DRSC08421 | 60867 | 91190 | 6.47e5 | 6.39e5 | inactive |
| CG13197 | DRSC06322 | 4.15e5 | 3.75e5 | 1.66e6 | 2.39e6 | inactive |
| CG13197 | DRSC39308 | – | – | – | – | inactive |
| CG3793 | DRSC01982 | 1.25e6 | 1.27e6 | 1.47e6 | 2.19e6 | inactive |
| Snmp1 (Sensory neuron membrane protein 1) | DRSC16168 | 4.89e5 | 4.71e5 | 2.58e6 | 2.40e6 | inactive |
| CG13280 | DRSC02253 | 1.45e5 | 1.19e5 | 1.36e6 | 1.60e6 | inactive |
| CG4338 | DRSC15564 | 1.26e5 | 66338 | 8.10e5 | 4.63e5 | inactive |
| cpx (complexin) | DRSC11999 | 1.55e5 | 1.55e5 | 3.75e5 | 3.39e5 | inactive |
| hook | DRSC03545 | 1.04e6 | 9.23e5 | 1.48e6 | 1.78e6 | inactive |
